{
  "source": "PubChem BioAssay AID540256",
  "about": "(National Center for Advancing Translational Sciences (NCATS), 2011)",
  "note": "About 3,700 (1.2%) of roughly 300,000 compounds were called active. The inconclusive results got no clear call from the source; some entries with a clear call stand among them for comparison. Calls follow the shape of the full dose curve; tested in HEK293 cells. Potencies of inconclusive entries are doubtful fits and often do not repeat. % is scaled to controls: 0 for no effect and ±100 for the full control effect; potency is read from the fitted curve at half-maximal effect.",
  "data": [
    {"experiment": "qHTS for Inhibitors of binding or entry into cells for Lassa Virus; also: nearly all actives have a fitted effect of over 50% in size", "settings": "Lassa virus pseudotype entry inhibition, cell reporter; activity change, negative = inhibition: at 37.9 µM (top of the series) unless noted", "values": [
      {"molecule": "CCOC(=O)N1CCN(C(=O)c2ccc3c(c2)NC(=O)/C(=C/c2ccccc2)S3)CC1", "Potency": "inconclusive: 7.08 µM [inhibitor, partial curve, poor fit]"},
      {"molecule": "CCOC(=O)/C=C/C(=O)Nc1ccc(S(=O)(=O)Nc2nccs2)cc1", "Potency": "inconclusive: 5.62 µM [activator, single point]"},
      {"molecule": "O=C(COC(=O)CNC(=O)C1CCCCC1)Nc1ccc2c(c1)OCCO2", "Potency": "inconclusive: 6.31 µM [inhibitor, single point]"},
      {"molecule": "Cn1c(=O)c2c(O)c(Cc3ccccc3)c(=O)[nH]c2n(C)c1=O", "Potency": "inconclusive: 12.6 µM [activator, single point]"},
      {"molecule": "C=C(c1ccccc1Cl)[n+]1ccccc1", "activity change, negative = inhibition": "inactive: -11.8%"},
      {"molecule": "COc1ccc(OCC(O)CN(C)C(=O)/C=C/c2cccc([N+](=O)[O-])c2)cc1", "note": "(stereo not given)", "activity change, negative = inhibition": "inactive: 7.05%"},
      {"molecule": "Cc1cc(C)c(C)c(OC(=O)c2sc(Cl)nc2C)c1", "Potency": "inconclusive: 12.6 µM [inhibitor, partial curve, poor fit]"},
      {"molecule": "CC(=O)Nc1ccccc1-c1ccc(C)o1", "activity change, negative = inhibition": "inactive: -0.371%"},
      {"molecule": "Cc1ccc(C)c(NC(=O)c2c(Cl)nc3ccccn23)c1", "activity change, negative = inhibition": "inactive: -0.402% [at 46.1 µM]"},
      {"molecule": "Cc1ccc(NC(=O)c2cc([N+](=O)[O-])ccc2NCc2cccnc2)cc1Cl", "Potency": "inconclusive: 32.6 µM [inhibitor, single point]"},
      {"molecule": "O=C(CN1c2ccccc2Sc2ccccc21)NNC(=O)Nc1cccc(Cl)c1", "Potency": "inconclusive: 35.5 µM [inhibitor, single point]"},
      {"molecule": "O=C1CCC(NC(=O)c2ccccc2)C(=O)N1", "note": "(stereo not given)", "Potency": "inconclusive: 2 µM [activator, single point]"},
      {"molecule": "Nc1cc(Cl)nc(N/N=C/c2ccccc2[N+](=O)[O-])n1", "activity change, negative = inhibition": "inactive: -2.18%"},
      {"molecule": "Cc1nc2ccccc2n2c(O)c(CC(=O)O)cc12", "activity change, negative = inhibition": "inactive: 10.8%"},
      {"molecule": "COc1ccc(OCc2cc(C(=O)N3C[C@@H](C)O[C@@H](C)C3)no2)c(Cl)c1", "activity change, negative = inhibition": "inactive: 1.09%"},
      {"molecule": "CN(C)S(=O)(=O)c1ccc(N2CCCC2)c(C(=O)OCC(=O)N2CCN(c3ccccc3)CC2)c1", "Potency": "inconclusive: 7.08 µM [inhibitor, full curve, poor fit]"},
      {"molecule": "CC(C)c1ccc(NC(=O)c2ccc(F)c(S(=O)(=O)N3CCc4ccccc4C3)c2)cc1", "Potency": "inconclusive: 7.08 µM [inhibitor, partial curve, poor fit]"},
      {"molecule": "CS(=O)(=O)N1N=C(c2ccco2)CC1c1ccccc1", "note": "(stereo not given)", "activity change, negative = inhibition": "inactive: 8.99%"},
      {"molecule": "O=c1oc2ccccc2c(N2CCCC2)c1CN1CCCC1", "activity change, negative = inhibition": "inactive: 1.2%"},
      {"molecule": "CC(C)NS(=O)(=O)c1ccc(NC(=O)C2CC3C=CC2C3)cc1", "note": "(stereo not given)", "Potency": "inconclusive: 35.5 µM [inhibitor, partial curve, poor fit]"},
      {"molecule": "CCc1cc2c(=O)n(Cc3ccco3)c(SCC(=O)N(C)C3CCS(=O)(=O)C3)nc2s1", "note": "(stereo not given)", "Potency": "inconclusive: 6.31 µM [activator, single point]"},
      {"molecule": "CC(Oc1ccc(Cl)cc1Cl)C(=O)Nc1ccc(OCC(=O)O)cc1", "note": "(stereo not given)", "activity change, negative = inhibition": "inactive: 13.2% [at 46.1 µM]"},
      {"molecule": "COC(=O)C1=C(C)N(Cc2ccccc2)C(=NCC(C)C)NC1c1cccc(F)c1", "note": "(stereo not given)", "Potency": "inconclusive: 2.37 µM [activator, single point]"},
      {"molecule": "Nc1nonc1-c1nc2ccccc2n1Cc1cccc(Cl)c1", "Potency": "inconclusive: 11.2 µM [inhibitor, partial curve, poor fit]"},
      {"molecule": "O=C(Nc1ccc(N2CCN(C(=O)c3cccs3)CC2)cc1)c1ccccc1F", "Potency": "inconclusive: 11.2 µM [inhibitor, single point]"},
      {"molecule": "CCCNC(=O)COC(=O)C1CCN(S(=O)(=O)c2ccc3c(c2)OCCO3)CC1", "Potency": "inconclusive: 1.26 µM [inhibitor, single point]"},
      {"molecule": "Cc1nnc2n1N=CC=C(c1ccccc1)S2", "Potency": "inconclusive: 18.3 µM [inhibitor, partial curve]"},
      {"molecule": "Cc1cc(=O)oc(C)c1C(=O)NCCc1ccccc1", "activity change, negative = inhibition": "inactive: 3.65%"},
      {"molecule": "CC1(CCc2ccccc2)NC(=S)N(c2ccccc2)N1", "note": "(stereo not given)", "Potency": "inconclusive: 3.26 µM [activator, partial curve, poor fit]"},
      {"molecule": "CCOC(=O)N1CCN(Cc2nc3cc(NC(=O)c4ccc(OC)cc4)ccc3n2C(C)C)CC1", "Potency": "inconclusive: 6.31 µM [inhibitor, partial curve, poor fit]"},
      {"molecule": "CCCCOc1ccc(C(=O)N2CCCC2)cc1", "Potency": "inconclusive: 32.6 µM [inhibitor, partial curve, poor fit]"},
      {"molecule": "CN(Cc1ccccc1)C(=O)CCC1CCN(C(=O)CCC(F)(F)F)CC1", "Potency": "inconclusive: 7.08 µM [inhibitor, full curve, poor fit]"},
      {"molecule": "Cc1ccc(NC(=O)c2c(C)nc(Nc3nc4ccccc4o3)nc2C)cc1", "Potency": "inconclusive: 32.6 µM [inhibitor, single point]"},
      {"molecule": "COc1ccc(O)c(/C=N/NC(=O)c2cccc(N3CCCC3=O)c2)c1", "Potency": "inconclusive: 7.08 µM [inhibitor, partial curve]"},
      {"molecule": "Cc1nn(-c2ccccc2)c(C)c1NC(=O)COc1ccc(Br)cc1Cl", "Potency": "inconclusive: 35.5 µM [inhibitor, single point]"},
      {"molecule": "Cc1ccc(C)n1-c1nn(S(=O)(=O)c2cccc(C(F)(F)F)c2)c2cccc(F)c12", "activity change, negative = inhibition": "inactive: 1.22% [at 46.1 µM]"},
      {"molecule": "C/C(CC(=O)Nc1cc(C)ccn1)=N\\NC(=O)c1ccc(C)cc1", "activity change, negative = inhibition": "inactive: 8.45%"},
      {"molecule": "O=C(Nc1nc(-c2ccccc2)cs1)C1CCCCN1S(=O)(=O)c1ccccc1", "note": "(stereo not given)", "Potency": "inconclusive: 23.1 µM [inhibitor, single point]"},
      {"molecule": "C=CCc1cccc2cc(C(=O)Nc3ccc(F)cc3)c(=O)oc12", "Potency": "inactive"},
      {"molecule": "CCS(=O)(=O)n1nc(-c2ccco2)nc1SC", "activity change, negative = inhibition": "inactive: 2.98%"},
      {"molecule": "FC(F)(F)Oc1ccc2c(c1)NC(c1ccncc1)=NC(c1cccs1)=N2", "activity change, negative = inhibition": "inactive: -10.5% [at 46.1 µM]"},
      {"molecule": "O=C(N/N=C/c1c[nH]c2ccccc12)c1ccc2c(c1)OCCO2", "Potency": "inconclusive: 7.08 µM [inhibitor, partial curve, poor fit]"},
      {"molecule": "CCOC(=O)/C(C#N)=C\\c1c(OCC)n(CC)c2ccccc12", "Potency": "inconclusive: 0.891 µM [inhibitor, full curve, poor fit]"},
      {"molecule": "Cc1cccc(C(=O)Nc2nnc(Cc3ccccc3)s2)c1", "activity change, negative = inhibition": "inactive: -27.5% [at 46.1 µM]"},
      {"molecule": "CCOC(=O)CNC(=O)c1c(C)nn(-c2ccccc2)c1Cl", "Potency": "inconclusive: 1.3 µM [inhibitor, single point]"},
      {"molecule": "Cc1cc(C(=O)O)oc(=O)c1", "Potency": "inconclusive: 35.5 µM [activator, single point]"},
      {"molecule": "COC(=O)C1C2C=CC(C3CC23)C1C(=O)OCC(=O)c1ccccc1", "note": "(stereo not given)", "Potency": "inconclusive: 14.6 µM [inhibitor, partial curve, poor fit]"},
      {"molecule": "O=C(NCCc1ccc(Cl)cc1)C1CCN(S(=O)(=O)c2ccc(Br)s2)CC1", "activity change, negative = inhibition": "inactive: -15.7%"},
      {"molecule": "O=C(C1CC1)N1CCc2cc(Br)cc(S(=O)(=O)NC3CCCCC3)c21", "Potency": "inconclusive: 29.1 µM [inhibitor, single point]"},
      {"molecule": "Cc1cccc(N2CCN(C(=O)c3ccc(CS(=O)c4cccc(Cl)c4)o3)CC2)c1C", "note": "(stereo not given)", "Potency": "inconclusive: 5.01 µM [inhibitor, full curve, poor fit]"},
      {"molecule": "CN1/C(=C\\C(=O)Nc2ccc(Cl)cc2)C(C)(C)c2ccccc21", "activity change, negative = inhibition": "inactive: -19.7% [at 46.1 µM]"},
      {"molecule": "Cc1ccc(CNC(=O)C(=O)NCC2OCCN2S(=O)(=O)c2ccc(Cl)cc2)cc1", "note": "(stereo not given)", "Potency": "inconclusive: 2.82 µM [inhibitor, full curve, poor fit]"},
      {"molecule": "O=C(CN1CCCC1)Nc1cc(C(F)(F)F)cc(C(F)(F)F)c1", "Potency": "inconclusive: 22.4 µM [inhibitor, partial curve, poor fit]"},
      {"molecule": "Cn1c(Cc2cccc3ccccc23)nnc1SCC(=O)N1CCN(c2ccccc2)CC1", "Potency": "inconclusive: 0.58 µM [activator, single point]"},
      {"molecule": "COc1ccc(CNC(=O)CCCn2nc(C)c([N+](=O)[O-])c2C)cc1OC", "activity change, negative = inhibition": "inactive: 1.66%"},
      {"molecule": "O=C(CSc1nnc(Cc2ccccc2)n1C1CCCCC1)N1CCOCC1", "activity change, negative = inhibition": "inactive: 11.7%"},
      {"molecule": "Cc1cc(C(=O)CN2C(=O)C(=O)N(Cc3ccco3)C2=O)c(C)n1CCc1ccccc1", "Potency": "inconclusive: 22.4 µM [inhibitor, single point]"},
      {"molecule": "O=C(C(c1ccccc1)C(O)c1ccccc1)N1CCOCC1", "note": "(stereo not given)", "activity change, negative = inhibition": "inactive: 15.3% [at 46.1 µM]"},
      {"molecule": "COc1ccc(CN2CCC(Oc3ccc(C(=O)N4CCCC4)cc3)CC2)c(F)c1", "activity change, negative = inhibition": "inactive: -17.5%"},
      {"molecule": "CN(C)C=NC(=O)c1cc2c(n(-c3ccccc3)c1=O)CC(C)(C)CC2=O", "Potency": "inconclusive: 5.62 µM [activator, single point]"},
      {"molecule": "CCNCc1cc(OCC)c(OCC(=O)NCCc2ccccc2)cc1Cl", "Potency": "inconclusive: 29.1 µM [inhibitor, single point]"},
      {"molecule": "COC(=O)[C@@]1(Cc2ccc(F)cc2)[C@H]2c3cc(C(=O)N4CCCC4)n(CCc4ccc(O)c(O)c4)c3C[C@H]2CN1C(=O)c1ccccc1", "activity change, negative = inhibition": "inactive: 9.61%"},
      {"molecule": "C/C(=N\\N1C(=O)CSC1=S)c1ccc(Br)cc1", "activity change, negative = inhibition": "inactive: -18.3%"},
      {"molecule": "COc1ccc(C(=O)Nc2ccc(OCC(F)(F)C(F)F)c(C(F)(F)F)c2)cc1OC", "Potency": "active: 17.8 µM"},
      {"molecule": "Cc1cc(C)c(S(=O)(=O)c2cccc(Cl)c2)c(=O)[nH]1", "Potency": "inconclusive: 22.4 µM [inhibitor, single point]"},
      {"molecule": "O=C(c1cccn2c(=O)c3cc(Cl)ccc3nc12)N1CCN(Cc2ccc3c(c2)OCO3)CC1", "activity change, negative = inhibition": "inactive: 1.87%"},
      {"molecule": "O=C(Cn1ccc([N+](=O)[O-])n1)c1ccccc1", "activity change, negative = inhibition": "inactive: 3.99%"},
      {"molecule": "CCN(CC)CCN(C(=O)c1ccc(S(=O)(=O)N(C)C2CCCCC2)cc1)c1nc2c(C)cccc2s1", "Potency": "inconclusive: 28.2 µM [inhibitor, partial curve, poor fit]"},
      {"molecule": "Cc1nc(N)[nH]c(=O)c1CCCNc1ccc([N+](=O)[O-])cc1", "Potency": "inconclusive: 31.6 µM [activator, single point]"},
      {"molecule": "O=C(CSc1ncnc2c1cnn2-c1ccccc1Cl)N1CCN(C(=O)c2ccco2)CC1", "Potency": "inconclusive: 18.3 µM [inhibitor, single point]"}
    ]}
  ]
}
